These results are taken from paper doi:10.1101/2024.09.09.612066.

What all share (assay): split reporter
In test [1] the target is T1, BIM1-CFPc (BiFC) (Arabidopsis) (UniProt Q9LEZ3).
T1 sequence: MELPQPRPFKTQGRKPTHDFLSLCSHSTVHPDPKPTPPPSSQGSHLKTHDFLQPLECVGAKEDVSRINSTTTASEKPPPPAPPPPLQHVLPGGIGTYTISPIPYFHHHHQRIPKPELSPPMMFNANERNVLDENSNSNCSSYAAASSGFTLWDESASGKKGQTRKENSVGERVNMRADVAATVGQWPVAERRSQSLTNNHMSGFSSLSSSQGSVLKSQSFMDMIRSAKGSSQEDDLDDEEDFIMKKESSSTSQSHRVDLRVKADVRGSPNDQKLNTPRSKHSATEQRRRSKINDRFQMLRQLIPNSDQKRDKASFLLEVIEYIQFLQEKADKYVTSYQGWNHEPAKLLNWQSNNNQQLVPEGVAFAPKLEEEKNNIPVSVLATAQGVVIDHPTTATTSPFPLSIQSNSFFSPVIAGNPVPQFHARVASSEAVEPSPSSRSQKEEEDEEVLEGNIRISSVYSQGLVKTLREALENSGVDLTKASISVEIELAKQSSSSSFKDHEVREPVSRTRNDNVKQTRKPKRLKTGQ

Test [2] has as its target T2, BIM2-YFPc (BiFC) (Arabidopsis) (UniProt Q9CAA4).
T2 sequence: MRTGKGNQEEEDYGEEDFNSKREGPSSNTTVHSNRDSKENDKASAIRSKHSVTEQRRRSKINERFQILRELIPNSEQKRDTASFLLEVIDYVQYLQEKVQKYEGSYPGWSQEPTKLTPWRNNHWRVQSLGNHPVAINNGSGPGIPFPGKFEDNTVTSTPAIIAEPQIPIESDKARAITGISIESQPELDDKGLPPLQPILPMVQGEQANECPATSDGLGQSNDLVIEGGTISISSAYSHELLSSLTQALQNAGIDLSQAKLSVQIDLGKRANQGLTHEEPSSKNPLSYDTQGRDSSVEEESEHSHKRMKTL

Test [3] concerns the target T3, BIM3-YFPc (BiFC) (Arabidopsis) (UniProt Q9FMB6).
T3 sequence: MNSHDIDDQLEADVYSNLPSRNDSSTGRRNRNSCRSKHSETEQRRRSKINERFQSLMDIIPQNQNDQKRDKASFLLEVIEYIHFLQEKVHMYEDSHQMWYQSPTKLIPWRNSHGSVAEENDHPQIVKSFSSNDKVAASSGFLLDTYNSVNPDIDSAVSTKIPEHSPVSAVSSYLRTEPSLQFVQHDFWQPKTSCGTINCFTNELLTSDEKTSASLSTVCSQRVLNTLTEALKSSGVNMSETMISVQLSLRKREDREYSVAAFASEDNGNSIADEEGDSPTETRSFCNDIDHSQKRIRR

These are yes or no findings as the source states them, for the method shown. Binding seen in cells or lysates may run through a third protein. Binding calls can cover weak binding; strength is not graded here.

Turning to “YFPn-HaRxL106 ΔC (BiFC) (SV40 | Hyaloperonospora arabidopsidis) (domain or fragment)”, the binding result in test [1] is given as “binds”.

“YFPn-HaRxL106 FL (BiFC) (Hyaloperonospora arabidopsidis)”: the binding result in test [1], in test [2] and in test [3] was “binds” throughout.
